# Results reported in PMC12013949.
# By UniProt entry, the sequences of proteins in these tests, tags left out. Residues count along the entry.
# UniProt P29844, residues 19-656: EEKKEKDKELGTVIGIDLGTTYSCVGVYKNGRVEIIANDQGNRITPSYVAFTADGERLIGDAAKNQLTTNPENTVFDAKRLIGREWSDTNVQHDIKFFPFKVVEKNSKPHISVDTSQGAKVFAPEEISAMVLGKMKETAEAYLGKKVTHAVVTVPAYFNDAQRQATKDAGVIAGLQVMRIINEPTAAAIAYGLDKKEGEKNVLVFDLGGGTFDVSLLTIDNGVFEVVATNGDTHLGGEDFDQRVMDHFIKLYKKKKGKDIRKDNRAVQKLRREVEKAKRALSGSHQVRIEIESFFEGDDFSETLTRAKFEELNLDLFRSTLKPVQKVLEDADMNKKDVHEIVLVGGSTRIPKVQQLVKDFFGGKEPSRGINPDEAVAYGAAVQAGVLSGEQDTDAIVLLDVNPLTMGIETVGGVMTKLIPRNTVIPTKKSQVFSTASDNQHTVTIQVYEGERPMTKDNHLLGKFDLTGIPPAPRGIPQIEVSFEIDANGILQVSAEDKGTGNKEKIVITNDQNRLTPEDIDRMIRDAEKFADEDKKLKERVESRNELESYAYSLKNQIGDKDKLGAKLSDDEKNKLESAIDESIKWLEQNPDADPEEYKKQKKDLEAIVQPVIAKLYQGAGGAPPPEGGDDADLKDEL
# Target: T1, Drosophila Werner syndrome exonuclease (WRNexo) with 3xHA, from UAS-WRNexo-3xHA flies (Drosophila) (UniProt Q9VE86)
# T1 sequence: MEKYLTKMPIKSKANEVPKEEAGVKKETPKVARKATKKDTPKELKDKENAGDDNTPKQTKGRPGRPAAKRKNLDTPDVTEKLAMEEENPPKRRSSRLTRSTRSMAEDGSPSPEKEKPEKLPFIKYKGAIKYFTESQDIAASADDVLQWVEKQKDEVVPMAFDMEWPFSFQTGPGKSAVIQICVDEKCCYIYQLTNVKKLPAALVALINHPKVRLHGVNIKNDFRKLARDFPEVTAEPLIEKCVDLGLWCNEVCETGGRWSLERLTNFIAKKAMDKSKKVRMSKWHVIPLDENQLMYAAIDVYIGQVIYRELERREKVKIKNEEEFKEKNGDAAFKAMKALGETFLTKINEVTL
# Assay: affinity purification with mass spectrometry; nuclear protein extraction from midguts of flies with esg-Gal4-driven WRNexo-HA overexpression, immunoprecipitation, SDS-PAGE, in-gel tryptic digestion, LC-MS/MS; three independent experiments
substance,measurement,value
"Heat shock 70-kDa protein cognate 3 (Hsc70-3/Bip), endogenous in Drosophila midguts (from UniProt P29844 19-656)",binding,binds

# Results are given in words; binding and its absence hold for the method and conditions named. In cells and extracts the contact can be indirect. These calls come from enrichment with a bait or labelling near it, and not all partners need be listed.
